Results deposited as PubChem BioAssay AID1259425 (University of Nebraska Medical Center, 2018).

Aim: 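Find knockdowns that reproduce the gene expression pattern seen when KSR1 is lost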 (primary screen)
Cell system: HCT116 human colon cancer cells
Reagents: siRNA pool against human genes, 50 nM siRNA
Measurement: 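mRNA of six signature genes measured together by branched-DNA assay after 50 nM siRNA pool, blank removed, divided by geometric mean of two housekeeping genes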
Direction: BNIP3L mRNA: higher = more BNIP3L transcript after knockdown; NDRG1 mRNA: higher = more NDRG1 transcript after knockdown; BNIP3 mRNA: higher = more BNIP3 transcript after knockdown
In all, the deposit lists about 14,000 reagents; shown is a part drawn at random. Further read-outs or replicates are left out here. Reagent sequences are not shown. Not given: the time to read-out.

no.	target gene	BNIP3L mRNA, set 1	NDRG1 mRNA, set 1	BNIP3 mRNA, set 1
1	USF2	0.114	0.137	0.246
2	DAAM1	0.13	0.109	0.191
3	SEPTIN6	0.155	0.0783	0.43
4	SGCB	0.0845	0.317	0.344
5	MPIG6B	0.11	0.215	0.359
6	MRPS15	0.127	0.23	0.174
7	LINC00652	0.11	0.0686	0.38
8	MED29	0.069	0.172	0.264
9	SYN3	0.0551	0.077	0.223
10	VAV3	0.0615	0.108	0.272
11	TMEM63B	0.512	0.582	1.4
12	FANCG	0.1	0.147	0.265
13	PCDHB4	0.174	0.0628	0.33
14	BTN3A1	0.172	0.128	0.445
15	RALY	0.209	0.182	0.526
16	GPR31	0.0724	0.0369	0.291
17	TRIM39	0.105	0.287	0.218
18	STEAP4	0.101	0.383	0.364
19	MAPK15	0.0466	0.138	0.356
20	MAN1B1	0.144	0.251	0.382
21	MEGF10	0.0874	0.135	0.226
22	CCR8	0.116	0.108	0.198
23	RASSF1	0.176	0.205	0.293
24	SIK1	0.102	0.176	0.211
25	XPO7	0.221	0.0602	0.324
26	CRYBA4	0.114	0.0547	0.392
27	DNAJC11	0.0673	0.0842	0.288
28	ZNF225	0.142	0.141	0.317
29	RAB34	0.276	0.282	0.257
30	GPR32	0.228	0.586	0.516
31	STRADA	0.0615	0.182	0.452
32	NTM	0.137	-0.011	0.455
33	PCDHB15	0.113	0.273	0.291
34	METTL25	0.12	0.075	0.253
35	PIK3R1	0.184	0.0899	0.417
36	SEC14L1	0.146	0.164	0.369
37	CAB39	0.0701	0.558	0.352
38	NUDCD3	0.226	0.202	0.422
39	DNAJA4	0.057	0.135	0.191
40	CSRP3	0.0724	0.51	0.268
41	BMP5	0.0563	0.124	0.163
42	PCDH10	0.11	0.173	0.335
43	HSPD1	0.125	0.313	0.321
44	RCBTB2	0.109	0.0475	0.312
45	TOX3	0.0823	0.191	0.204
46	VHL	0.0682	0.166	0.302
47	PRKG1	0.0815	0.0569	0.393
48	MED15	0.195	0.68	0.455
49	DNAH9	0.106	0.398	0.275
50	TBC1D15	0.131	0.155	0.328

4 entries from above, reformatted.
DAAM1 — BNIP3L mRNA, set 1 = 0.13; NDRG1 mRNA, set 1 = 0.109; BNIP3 mRNA, set 1 = 0.191
SEPTIN6 — BNIP3L mRNA, set 1 = 0.155; NDRG1 mRNA, set 1 = 0.0783; BNIP3 mRNA, set 1 = 0.43
SGCB — BNIP3L mRNA, set 1 = 0.0845; NDRG1 mRNA, set 1 = 0.317; BNIP3 mRNA, set 1 = 0.344
MPIG6B — BNIP3L mRNA, set 1 = 0.11; NDRG1 mRNA, set 1 = 0.215; BNIP3 mRNA, set 1 = 0.359
